Values joined by “and” are separate entries in the source; they are usually repeats but may differ in a detail not shown here. Identical values can stand only once. Some of the results follow.
Assays:
Experiment in all cases: protein microarray (ProtoArray v5.0), streptavidin-Alexa Fluor 647
Conditions in all cases: 3'-biotin; 20 mM Tris (pH 7.5), 5 mM MgCl2, 100 mM KCl, 0.1% Tween-20, A/T-rich and random oligonucleotide blockers; temperature not stated; high values mean tight binding
NUBP1 (human) = system: NUBP1 (human)
NUCB1 (human) = system: NUCB1 (human)
NUDCD2 (human) = system: NUDCD2 (human)
NUDT1 (human) = system: NUDT1 (human)
NUDT12 (human) = system: NUDT12 (human)
NUDT6 (human) = system: NUDT6 (human)
NUDT9 (human) = system: NUDT9 (human)
NUMB (human) = system: NUMB (human)
NUP62CL (human) = system: NUP62CL (human)
NVL (human) = system: NVL (human)
NXNL1 (human) = system: NXNL1 (human)
NXNL2 (human) = system: NXNL2 (human)
NY-SAR-48 (human) = system: NY-SAR-48 (human)
[1] = system: Neuritin-like protein (human)
[2] = system: Neurocalcin-delta (human)
[3] = system: Neuropilin and tolloid-like protein 2 (human)
Neuroplastin (human) = system: Neuroplastin (human)
[4] = system: Neutral alpha-glucosidase AB (human)
[5] = system: Non-imprinted in Prader-Willi/Angelman syndrome region protein 1 homolog (human)
[6] = system: Nuclear transcription factor Y subunit beta (human)

GGGAGGCTGAGGCAGG [G4-1 biotinylated (PQS2)]
binding signal (NUBP1 (human)): -0.315 z-score
binding signal (NUCB1 (human)): -0.336 z-score
binding signal (NUDCD2 (human)): -0.255 z-score
binding signal (NUDT1 (human)): -0.286 z-score
binding signal (NUDT12 (human)): -0.285 z-score
binding signal (NUDT6 (human)): -0.237 z-score
binding signal (NUDT9 (human)): -0.323 z-score and -0.263 z-score
binding signal (NUMB (human)): -0.345 z-score
binding signal (NUP62CL (human)): -0.29 z-score
binding signal (NVL (human)): -0.338 z-score
binding signal (NXNL1 (human)): -0.34 z-score
binding signal (NXNL2 (human)): -0.287 z-score
binding signal (NY-SAR-48 (human)): -0.337 z-score
binding signal [1]: -0.321 z-score
binding signal [2]: -0.355 z-score
binding signal [3]: -0.267 z-score
binding signal (Neuroplastin (human)): -0.347 z-score
binding signal [4]: -0.303 z-score
binding signal [5]: -0.304 z-score
binding signal [6]: -0.278 z-score

From publication PMC5996148
